Assay results taken from publication PMC11965567.
No constants are given. Whether binding was seen depends on the method and setting. Binding seen in cells or lysates may run through a third protein. Some results given as binding are weak or reduced against the parent protein; the word gives no strength.

Molecular target: T1, Calpastatin (CAST), endogenous (human (endogenous in MDA-MB-231, HCC-1954 and T47D)) (UniProt P20810)
T1 sequence: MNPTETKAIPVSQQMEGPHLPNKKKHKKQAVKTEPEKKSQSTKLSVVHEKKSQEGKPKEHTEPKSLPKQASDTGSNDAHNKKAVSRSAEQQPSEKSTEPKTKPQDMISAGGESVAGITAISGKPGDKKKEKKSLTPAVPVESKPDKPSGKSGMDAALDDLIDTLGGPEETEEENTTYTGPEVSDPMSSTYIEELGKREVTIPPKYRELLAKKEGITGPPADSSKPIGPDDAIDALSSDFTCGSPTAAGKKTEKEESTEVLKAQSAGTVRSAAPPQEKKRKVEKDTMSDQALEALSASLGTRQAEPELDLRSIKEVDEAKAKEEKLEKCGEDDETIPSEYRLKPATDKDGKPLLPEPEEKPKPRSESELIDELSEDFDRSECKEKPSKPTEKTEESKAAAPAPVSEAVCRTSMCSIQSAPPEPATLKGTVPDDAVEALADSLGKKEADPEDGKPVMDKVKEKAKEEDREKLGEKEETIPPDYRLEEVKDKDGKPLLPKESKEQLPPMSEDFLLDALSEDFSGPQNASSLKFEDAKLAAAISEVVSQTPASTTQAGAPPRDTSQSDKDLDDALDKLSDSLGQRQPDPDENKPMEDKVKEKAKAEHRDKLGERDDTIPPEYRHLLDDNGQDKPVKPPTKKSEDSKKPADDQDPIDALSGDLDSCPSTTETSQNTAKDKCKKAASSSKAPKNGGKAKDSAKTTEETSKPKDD
Test: co-IP; reciprocal co-IP from MDA-MB-231 and HCC-1954 cell lysates with anti-TXNIP or anti-CAST antibodies (IgG as control), western blotting for TXNIP and CAST

B1: Thioredoxin-interacting protein (TXNIP), endogenous (protein, UniProt Q9H3M7 1-391)
chain: MVMFKKIKSFEVVFNDPEKVYGSGEKVAGRVIVEVCEVTRVKAVRILACGVAKVLWMQGSQQCKQTSEYLRYEDTLLLEDQPTGENEMVIMRPGNKYEYKFGFELPQGPLGTSFKGKYGCVDYWVKAFLDRPSQPTQETKKNFEVVDLVDVNTPDLMAPVSAKKEKKVSCMFIPDGRVSVSARIDRKGFCEGDEISIHADFENTCSRIVVPKAAIVARHTYLANGQTKVLTQKLSSVRGNHIISGTCASWRGKSLRVQKIRPSILGCNILRVEYSLLIYVSVPGSKKVILDLPLVIGSRSGLSSRTSSMASRTSSEMSWVDLNIPDTPEAPPCYMDVIPEDHRLESPTTPLLDDMDGSQDSPIFMYAPEFKFMPPPTYTEVDPCILNNNVQ
- binding: binds

B2: Thioredoxin-interacting protein (TXNIP), overexpressed in HCC-1954 cells (protein, UniProt Q9H3M7 1-391)
chain: B1 chain
- binding: binds
